Test results from the supplement of paper PMC3334620.
Over roughly 33,000 sequences, “E-score (-0.5 to 0.5)” has its median near -0.015; the highest 2% begin near 0.3. The list shows a part of the results.

The sequences below were run against T1, Abf1 (UniProt P14164) (assay: PBM E-score (8-mer binding enrichment) (E-score (-0.5 to 0.5)); higher = stronger / more preferred TF binding). Details: protein concentration: 200 nM; construct: GST-full length.
T1 sequence: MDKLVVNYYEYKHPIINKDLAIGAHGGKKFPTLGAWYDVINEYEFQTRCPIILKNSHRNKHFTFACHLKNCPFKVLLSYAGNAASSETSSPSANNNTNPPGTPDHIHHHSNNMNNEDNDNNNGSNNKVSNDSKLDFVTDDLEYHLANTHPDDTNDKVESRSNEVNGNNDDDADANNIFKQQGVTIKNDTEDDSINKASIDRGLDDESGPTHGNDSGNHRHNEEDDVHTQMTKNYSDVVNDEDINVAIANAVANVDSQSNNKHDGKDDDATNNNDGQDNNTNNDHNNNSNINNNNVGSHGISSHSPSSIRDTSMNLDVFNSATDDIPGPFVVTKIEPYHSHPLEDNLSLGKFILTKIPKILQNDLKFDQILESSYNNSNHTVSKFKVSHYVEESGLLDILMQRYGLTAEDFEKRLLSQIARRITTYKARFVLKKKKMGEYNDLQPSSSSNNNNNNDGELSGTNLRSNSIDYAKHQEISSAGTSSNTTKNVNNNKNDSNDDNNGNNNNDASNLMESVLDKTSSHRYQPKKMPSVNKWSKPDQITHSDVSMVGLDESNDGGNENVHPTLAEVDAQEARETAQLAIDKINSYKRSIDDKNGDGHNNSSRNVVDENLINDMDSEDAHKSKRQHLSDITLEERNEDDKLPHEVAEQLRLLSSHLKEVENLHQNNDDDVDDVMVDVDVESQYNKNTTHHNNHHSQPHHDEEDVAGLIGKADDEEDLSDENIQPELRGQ
In short: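 Full-length yeast transcription factors or their DNA-binding domains, GST-tagged and expressed with PURExpress, were applied at about 100-200 nM to universal all-10-mer Agilent arrays. These arrays had been made double-stranded by primer extension on fresh or once-stripped slides. Detection used fluorescent anti-GST, normalisation used masliner, and E-scores for ungapped eight-base words pooled with reverse complements came from the Universal PBM Analysis Suite.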

Row | Sequence | PBM E-score
1 | CACACACC | -0.169
2 | AACCGATC | -0.163
3 | GTCACATA | 0.246
4 | CCATCCGC | -0.12
5 | AAGTTTGT | 0.0616
6 | AAGTTCTC | -0.035
7 | AGTAAGCG | -0.0466
8 | TATGCTAA | -0.216
9 | CCACCGTC | 0.0476
10 | AGACAGCC | -0.208
11 | CCCTTTAA | -0.0657
12 | TATACGGA | 0.164
13 | GCCTTACA | -0.205
14 | CGGATCAC | 0.193
15 | CGCATTGC | -0.0662
16 | ATGCCGTA | 0.288
17 | CTGAACGA | 0.173
18 | AAGTACCG | 0.0551
19 | CACGCCTG | -0.0185
20 | CTCCTCTC | -0.269
21 | GCCCCCAC | -0.319
22 | ATCGAAGA | 0.124
23 | CGTATCGC | 0.123
24 | ACGAGGAC | 0.0731
25 | CGCACTAA | 0.0244

Row | Sequence | PBM E-score
26 | CGTAATAA | 0.251
27 | TACAGCCA | -0.224
28 | TTCCACAA | -0.0375
29 | ATGCAGGC | -0.0563
30 | CGATCCAC | 0.0791
31 | AAAGAGGC | -0.209
32 | CAAGGCAG | -0.134
33 | AGGCGTGA | 0.0402
34 | TGGCGTAA | -0.137
35 | CCTCAAGG | -0.217
36 | GAGCCGAA | 0.0505
37 | AAGGGAAT | -0.0145
38 | ACTGACAC | -0.195
39 | ATTCCACC | 0.0168
40 | CCGCTCCA | -0.155
41 | ACCCACCG | 0.0262
42 | GATAAGCC | -0.148
43 | AGCGCACA | -0.0935
44 | GTAATCAC | 0.141
45 | CACCGAAC | -0.111
46 | ACGTTAAT | 0.163
47 | CCCCGTTC | 0.0254
48 | AACCGTAC | 0.162
49 | CGTAGTTA | 0.285
50 | ATCGGGAA | 0.00913

Row | Sequence | PBM E-score
51 | CACGCGTG | 0.0911
52 | TACCCAGA | -0.121
53 | CCGATCAG | 0.0154
54 | ATTACTAG | -0.191
55 | GAAGGGGA | -0.0331
56 | GCGGCCAA | -0.123
57 | ATTCCTGG | -0.195
58 | GGCTTGTA | -0.0629
59 | ACATGGGA | -0.0276
60 | AGGCTCCA | -0.282
61 | CATATTAG | 0.136
62 | CCCGTAAA | 0.035
63 | CACAATTA | 0.165
64 | ACACGGAC | 0.296
65 | GACCTTCC | -0.121
66 | GACCGGTC | -0.126
67 | GTATGTAA | 0.132
68 | CCGTGAGG | 0.00323
69 | CGATACTC | 0.0987
70 | AACGGCCG | -0.0756
71 | AGACGTAC | 0.244
72 | AACCTCTC | -0.269
73 | CCCAGGCA | -0.125
74 | GGCTGGGA | 0.00161
75 | CATCCCGA | 0.024

Row | Sequence | PBM E-score
76 | GCCTCTCA | -0.179
77 | GTATAAAA | 0.356
78 | GTAACTTA | 0.0598
79 | GGTTTCAC | -0.0429
80 | TGTTAGAA | -0.052
81 | ACACCTAT | -0.0633
82 | AGTTCTAT | -0.0806
83 | ATGCGGAG | -0.0481
84 | ACAACATG | 0.0833
85 | ACGAGTGA | 0.217
86 | CTGTTGGC | -0.262
87 | TCGTTAGA | 0.244
88 | TCTTAGCA | -0.236
89 | AGTAAGTG | -0.126
90 | GGCGCGAA | -0.0951
91 | GTGAACAC | -0.00022
92 | ATATATTA | 0.219
93 | AGTGACCA | 0.308
94 | AAAGGGGA | -0.00295
95 | TCCGAACA | -0.148
96 | ACACTGTG | -0.164
97 | ACACGCAC | -0.0255
98 | CGCGCGAC | 0.259
99 | ATCCGCCC | -0.191
100 | GACACACA | -0.0457

Row | Sequence | PBM E-score
101 | ACGCCACG | 0.106
102 | CCGCCAGA | -0.00462
103 | CAGAAGGG | -0.136
104 | GCTACCCC | -0.165
105 | CGTACCAC | 0.239
106 | CAGCAGCC | -0.098
107 | ACGGTCAC | 0.0626
108 | AACACCTA | 0.0589
109 | CACGCAAC | 0.2
110 | CCCATGCC | -0.108
111 | CTTAGGAC | 0.115
112 | CCCACGAA | 0.316
113 | TCCAGTAA | -0.184
114 | AGTGTTTG | -0.0678
115 | TACTAGCA | 0.083
116 | CGGCTGAC | -0.0184
117 | CTTCTCGC | 0.0168
118 | AGCTACAC | -0.0645
119 | ATCATGAG | 0.238
120 | GATACCTA | 0.179
121 | ATTTCGCC | 0.0643
122 | CGTTTCTA | 0.00971
123 | AGCGAACG | -0.108
124 | CGGAGCCG | -0.0539
125 | CGGTTGCA | -0.127

Row | Sequence | PBM E-score
126 | ACGAATCG | 0.189
127 | GATACAGA | -0.00729
128 | GAAGGTGC | -0.15
129 | GTTCTCTA | 0.0211
130 | CGCTTAGA | -0.223
131 | CATGCCAG | -0.203
132 | CCAAGATA | 0.0521
133 | AACTGGCC | -0.0128
134 | ACGATGTC | 0.225
135 | AGCGTTAT | 0.0548
136 | GATATCTA | 0.26
137 | CATCGCCA | 0.103
138 | AAACCCTT | -0.136
139 | GATAGGTA | 0.0863
140 | GCTCGCGA | 0.2
141 | AATCCTGG | -0.208
142 | ACATTTAG | -0.0407
143 | TCGATCGA | -0.141
144 | CGCCGTGC | 0.166
145 | TTACACAA | 0.134
146 | CTGGATTA | 0.118
147 | TCGCTGCA | 0.079
148 | CGCGCGCG | -0.042
149 | ATACTCGA | -0.117
150 | CTGTAGAC | -0.109

Row | Sequence | PBM E-score
151 | ATGACTTA | 0.242
152 | AACGTAGC | 0.176
153 | GCTGCTCC | -0.194
154 | GAGCGCGA | 0.0052
155 | CACGGAAG | 0.0921
156 | ACATGGGC | 0.0612
157 | CGCTGTAC | -0.228
158 | ACCCTTCT | -0.15
159 | TCCGCTAA | 0.0328
160 | CGCCGTCA | 0.199
161 | AGCGTGAA | 0.0285
162 | AGGTCCTC | -0.171
163 | TAGGCAGA | 0.0907
164 | GCTGGGCA | -0.0531
165 | GAGTGATC | 0.327
166 | ATTTACGA | 0.253
167 | ATCTGACC | 0.042
168 | AAGACCGC | -0.15
169 | CATCATCG | 0.229
170 | CCACCTAG | -0.225
171 | ACCAACTA | 0.0184
172 | TCCGGAGA | -0.178

Part of the list above, with each value named:
GCTGGGCA
  PBM E-score: -0.0531
GAGTGATC
  PBM E-score: 0.327
ATTTACGA
  PBM E-score: 0.253
ATCTGACC
  PBM E-score: 0.042

Looked up one by one from the entries so far:
Row | Sequence | PBM E-score
87 | TCGTTAGA | 0.244
113 | TCCAGTAA | -0.184
161 | AGCGTGAA | 0.0285
76 | GCCTCTCA | -0.179
